{"source": "PubChem BioAssay AID1224828 (NIAID, 2016)", "test": "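Find genes required for NF-kappaB p65 moving into the nucleus after LPS in mouse macrophages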 (primary screen)", "cell system": "mouse RAW264.7 G9 macrophage reporter cells (GFP-p65, Tnf promoter-mCherry)", "reagents": "siRNA pool against mouse genes, 100 nM", "timing": "2 days siRNA transfection, then 40 min LPS before fixation", "conditions": "LPS (Salmonella minnesota R595) at 10 ng/ml", "read-out": "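Imaged p65 nuclear translocation ratio, normalised to the plate median, converted to robust z-scores and averaged across two replicates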", "scale": "p65 translocation robust z-score: higher = more nuclear NF-kappaB p65 after LPS than the plate median; nuclear/cytoplasmic p65 ratio: higher = more nuclear NF-kappaB p65", "call rule": "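Active if robust z is above 3.3 (negative regulators) or below -1.56, the Tlr4 control median (positive regulators); activity score 50 or more; control wells not called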", "calls": "active = hit (p65 shift raised or lowered); inactive = no clear change", "note": "The deposit covers about 17,000 reagents; shown is a part drawn at random. In the full data, 762 (4.5%) got an active call. 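Active calls include both raised and lowered p65 entry, mostly lowered; wells with fewer than 50 cells lack a z-score.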 The raw values are shown without normalisation."}
The first 2 records as a preview:
{"gene knocked down":"Cited1 (GeneID 12705)","p65 translocation robust z-score":-0.74,"nuclear/cytoplasmic p65 ratio, rep 1":1.34,"nuclear/cytoplasmic p65 ratio, rep 2":1.29,"low cell count flag":"enough cells to score","call":"inactive"}
{"gene knocked down":"Polr2d (GeneID 69241)","p65 translocation robust z-score":1.08,"nuclear/cytoplasmic p65 ratio, rep 1":1.47,"nuclear/cytoplasmic p65 ratio, rep 2":2.08,"low cell count flag":"enough cells to score","call":"inactive"}

The list itself, repeating the preview:
{"gene knocked down":"Cited1 (GeneID 12705)","p65 translocation robust z-score":-0.74,"nuclear/cytoplasmic p65 ratio, rep 1":1.34,"nuclear/cytoplasmic p65 ratio, rep 2":1.29,"low cell count flag":"enough cells to score","call":"inactive"}
{"gene knocked down":"Polr2d (GeneID 69241)","p65 translocation robust z-score":1.08,"nuclear/cytoplasmic p65 ratio, rep 1":1.47,"nuclear/cytoplasmic p65 ratio, rep 2":2.08,"low cell count flag":"enough cells to score","call":"inactive"}
{"gene knocked down":"Gm4736 (GeneID 100502592)","p65 translocation robust z-score":-0.4,"nuclear/cytoplasmic p65 ratio, rep 1":1.44,"nuclear/cytoplasmic p65 ratio, rep 2":1.53,"low cell count flag":"enough cells to score","call":"inactive"}
{"gene knocked down":"4921511C20Rik (GeneID 245598)","p65 translocation robust z-score":-1.1,"nuclear/cytoplasmic p65 ratio, rep 1":1.1,"nuclear/cytoplasmic p65 ratio, rep 2":1.18,"low cell count flag":"enough cells to score","call":"inactive"}
{"gene knocked down":"Paqr9 (GeneID 75552)","p65 translocation robust z-score":-1,"nuclear/cytoplasmic p65 ratio, rep 1":1.31,"nuclear/cytoplasmic p65 ratio, rep 2":1.25,"low cell count flag":"enough cells to score","call":"inactive"}
{"gene knocked down":"Rtel1 (GeneID 269400)","p65 translocation robust z-score":0.54,"nuclear/cytoplasmic p65 ratio, rep 1":1.73,"nuclear/cytoplasmic p65 ratio, rep 2":1.66,"low cell count flag":"enough cells to score","call":"inactive"}
{"gene knocked down":"Tnfsf9 (GeneID 21950)","nuclear/cytoplasmic p65 ratio, rep 1":0,"nuclear/cytoplasmic p65 ratio, rep 2":1.3,"low cell count flag":"fewer than 50 cells per well; well left out of scoring","call":"inactive"}
{"gene knocked down":"Depdc5 (GeneID 277854)","p65 translocation robust z-score":0.83,"nuclear/cytoplasmic p65 ratio, rep 1":1.66,"nuclear/cytoplasmic p65 ratio, rep 2":1.7,"low cell count flag":"enough cells to score","call":"inactive"}
{"gene knocked down":"Poglut3 (GeneID 68304)","p65 translocation robust z-score":-0.41,"nuclear/cytoplasmic p65 ratio, rep 1":1.2,"nuclear/cytoplasmic p65 ratio, rep 2":1.25,"low cell count flag":"enough cells to score","call":"inactive"}
{"gene knocked down":"Grpr (GeneID 14829)","p65 translocation robust z-score":-1.25,"nuclear/cytoplasmic p65 ratio, rep 1":1.32,"nuclear/cytoplasmic p65 ratio, rep 2":1.41,"low cell count flag":"enough cells to score","call":"inactive"}
{"gene knocked down":"Ptch2 (GeneID 19207)","p65 translocation robust z-score":-0.01,"nuclear/cytoplasmic p65 ratio, rep 1":1.49,"nuclear/cytoplasmic p65 ratio, rep 2":1.42,"low cell count flag":"enough cells to score","call":"inactive"}
{"gene knocked down":"4931406H21Rik (GeneID 77592)","p65 translocation robust z-score":-1.36,"nuclear/cytoplasmic p65 ratio, rep 1":1.1,"nuclear/cytoplasmic p65 ratio, rep 2":1.08,"low cell count flag":"enough cells to score","call":"inactive"}
